Two molecules from publication PMC4736043 can be followed below.

Protein sequences, listed by entry. Tags and fused reporters are not part of them. Residues count along the entry.
UniProt Q6ZWR6, residues 8740-8799: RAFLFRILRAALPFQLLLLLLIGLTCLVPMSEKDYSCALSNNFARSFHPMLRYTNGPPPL

For assay [1], the target named is T1, Myc-tagged Sun4 (amino acids 135-444) (mouse) (UniProt Q9JJF2).
T1 sequence: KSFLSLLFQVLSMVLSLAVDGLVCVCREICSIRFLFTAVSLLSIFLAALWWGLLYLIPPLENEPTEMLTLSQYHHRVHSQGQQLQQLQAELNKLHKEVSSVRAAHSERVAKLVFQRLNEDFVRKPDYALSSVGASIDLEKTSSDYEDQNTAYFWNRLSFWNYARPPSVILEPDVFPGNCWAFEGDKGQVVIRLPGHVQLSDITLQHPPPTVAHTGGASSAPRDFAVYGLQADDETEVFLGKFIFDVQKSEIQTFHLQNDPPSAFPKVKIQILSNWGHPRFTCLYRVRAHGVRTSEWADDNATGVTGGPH
Briefly: co-IP; Myc- and EGFP-fusion constructs co-expressed in COS-7 cells; cells lysed in RIPA buffer; Myc-tagged proteins immunoprecipitated with anti-myc antibodies; co-precipitating EGFP-fusion proteins detected with anti-EGFP antibodies; unspecific rabbit IgG as control.

For the next assay, the target named is T2, Myc-tagged Sun3 (UniProt Q5SS91).
T2 sequence: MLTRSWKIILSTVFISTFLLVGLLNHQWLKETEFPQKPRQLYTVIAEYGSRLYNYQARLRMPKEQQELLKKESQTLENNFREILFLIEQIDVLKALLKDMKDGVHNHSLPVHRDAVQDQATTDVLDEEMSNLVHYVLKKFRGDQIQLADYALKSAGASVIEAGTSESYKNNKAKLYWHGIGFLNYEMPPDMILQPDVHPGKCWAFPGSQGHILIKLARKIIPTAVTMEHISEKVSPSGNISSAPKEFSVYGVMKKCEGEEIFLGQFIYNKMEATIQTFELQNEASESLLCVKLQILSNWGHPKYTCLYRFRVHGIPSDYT
Described as above.

No constants are given. Whether binding was seen depends on the method and setting. In cells and extracts the contact can be indirect. Some binding calls cover weakened binding; strength is not graded here. Tags and fused reporters may be left off the sequences shown.

Take “EGFP-tagged KASH domain of Nesprin1 (from UniProt Q6ZWR6 8740-8799) (domain or fragment)”: the binding result in assay [1] is “binds”.

B1: EGFP-tagged Sun4 (amino acids 135-444) (domain or fragment, UniProt Q9JJF2-1 135-443)
chain: KSFLSLLFQVLSMVLSLAVDGLVCVCREICSIRFLFTAVSLLSIFLAALWWGLLYLIPPLENEPTEMLTLSQYHHRVHSQGQQLQQLQAELNKLHKEVSSVRAAHSERVAKLVFQRLNEDFVRKPDYALSSVGASIDLEKTSSDYEDQNTAYFWNRLSFWNYARPPSVILEPDVFPGNCWAFEGDKGQVVIRLPGHVQLSDITLQHPPPTVAHTGGASSAPRDFAVYGLQADDETEVFLGKFIFDVQKSEIQTFHLQNDPPSAFPKVKIQILSNWGHPRFTCLYRVRAHGVRTSEWADDNATGVTGGPH
In the case of B1, the binding entry (in the assay with Myc-tagged Sun3; in assay [1]) was “binds” in each case.
